Results taken from PubChem BioAssay AID1117319 (Southern Research Institute, 2015).
In all, about 260,000 compounds went through this assay and about 1,500 (0.58%) were called active. The inconclusive results got no clear call from the source; some entries with a clear call stand among them for comparison.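 How the source made its calls: active means inhibition above a set limit at one or more doses, reproduced on every date tested; inconclusive means results disagree between test dates, or hit never tested in dose response; inactive means the rest.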

Amino acid sequences for entries named in this document (tags omitted). A change or cut given only in a name is not applied to a line headed by its entry.
UniProt P69720: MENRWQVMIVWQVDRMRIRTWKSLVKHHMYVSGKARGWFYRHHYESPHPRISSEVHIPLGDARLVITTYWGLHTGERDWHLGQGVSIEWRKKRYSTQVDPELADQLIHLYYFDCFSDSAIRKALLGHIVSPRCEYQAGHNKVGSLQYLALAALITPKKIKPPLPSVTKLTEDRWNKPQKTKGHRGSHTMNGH
UniProt P69721: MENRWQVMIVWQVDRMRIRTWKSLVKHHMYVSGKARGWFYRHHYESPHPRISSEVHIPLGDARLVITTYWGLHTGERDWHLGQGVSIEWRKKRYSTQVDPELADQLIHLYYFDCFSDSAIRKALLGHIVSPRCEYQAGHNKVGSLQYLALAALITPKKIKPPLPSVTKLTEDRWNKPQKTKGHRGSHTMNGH
UniProt P69722: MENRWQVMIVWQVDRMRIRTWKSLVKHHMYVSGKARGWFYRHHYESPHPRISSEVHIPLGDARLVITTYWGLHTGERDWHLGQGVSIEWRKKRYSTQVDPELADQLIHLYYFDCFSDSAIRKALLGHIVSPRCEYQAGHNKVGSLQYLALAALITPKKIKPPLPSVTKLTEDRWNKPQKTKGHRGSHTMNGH
UniProt P69723: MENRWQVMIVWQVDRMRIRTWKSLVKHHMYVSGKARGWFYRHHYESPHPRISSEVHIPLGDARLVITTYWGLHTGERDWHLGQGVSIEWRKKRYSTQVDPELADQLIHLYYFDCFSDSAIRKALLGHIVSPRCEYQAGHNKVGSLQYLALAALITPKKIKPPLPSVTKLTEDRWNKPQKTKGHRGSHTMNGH
UniProt Q9HC16: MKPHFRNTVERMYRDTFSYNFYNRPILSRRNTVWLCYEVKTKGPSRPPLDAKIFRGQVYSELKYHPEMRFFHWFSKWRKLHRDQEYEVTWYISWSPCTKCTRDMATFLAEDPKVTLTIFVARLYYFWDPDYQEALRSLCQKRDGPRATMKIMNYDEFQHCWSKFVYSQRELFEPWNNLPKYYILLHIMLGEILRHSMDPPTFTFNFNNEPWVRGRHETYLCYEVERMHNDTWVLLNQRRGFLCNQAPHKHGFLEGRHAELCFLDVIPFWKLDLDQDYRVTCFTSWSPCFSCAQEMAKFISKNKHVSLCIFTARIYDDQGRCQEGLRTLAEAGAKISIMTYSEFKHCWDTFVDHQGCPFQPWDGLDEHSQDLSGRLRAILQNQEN

These compounds were tested against Virion infectivity factor (Human immunodeficiency virus type 1 group M subtype B (isolate BH10)) + Virion infectivity factor (Human immunodeficiency virus type 1 group M subtype B (isolate BRU/LAI)) + Virion infectivity factor (Human immunodeficiency virus type 1 group M subtype B (isolate PCV12)) + Virion infectivity factor (Human immunodeficiency virus type 1 group M subtype B (isolate HXB2)) + DNA dC->dU-editing enzyme APOBEC-3G (Homo sapiens) (UniProt P69720+P69721+P69722+P69723+Q9HC16) (assay: inhibitors of Vif binding to APOBEC3G peptide, primary screen, biochemical, TR-FRET, GST-Vif 1-94, biotin-A3G peptide, dose response retest (AID 1117319;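 further: Vif residues 1-94 fused to GST binding biotinylated APOBEC3G peptide 110-148; 0% = full assay without inhibitor and 100% = GST in place of GST-Vif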)). Settings: hits give high values.

SMILES	inhibition
Cc1cccc(NC(=S)N2CCCCCC2)c1	inconclusive: 35%
O=S(=O)(c1cccc2nsnc12)N1CCN(C/C=C\c2ccccc2)CC1	inconclusive: 35.7%
S=C(NCc1ccc(Cl)cc1)NCc1ccccn1	inconclusive: 58.1%
COCCNCC#CCOc1ccc(OC)cc1	inconclusive: 42.3%
CC(=O)Nc1ccc(-c2csc(Nc3ncccn3)n2)cc1	inconclusive: 35.5%
CN(C)S(=O)(=O)c1cc(NC(=O)CN2CCN(c3ccccc3F)CC2)ccc1Cl	inconclusive: 35.5%
CCC(C)(C)NC(=O)CN(Cc1cccs1)C(=O)CCC(=O)Nc1nccs1	inconclusive: 33.3%
COc1ccc(S(=O)(=O)NC(C(C)C)C(C)C)cc1OC	inconclusive: 47.4%
COc1cc(-c2nc(-c3ccc(NC(=O)c4ccc5c(c4)OCO5)cc3)no2)cc(OC)c1OC	inconclusive: 47.9%
CC(=O)c1ccc(N2CCN(c3ccc(C(N)=O)cc3[N+](=O)[O-])CC2)cc1	inactive: 15.8%
CSc1nc(SCCO)c2sc3nc(-c4ccco4)c4c(c3c2n1)CC(C)(C)OC4	inconclusive: 47.5%
COc1ccc(S(=O)(=O)N(C)CC(=O)N2CCCCC2)cc1Cl	inconclusive: 39.9%
CCc1ccc(CC2S/C(=C(\C#N)C(C)=O)NC2=O)cc1 (stereo not drawn)	inconclusive: 42.8%
Cn1c([N+](=O)[O-])cnc1COC(N)=O	inconclusive: 46.9%
COc1cc(C(=O)CCN2CCC(c3ccccc3)C2)cc(OC)c1OC (stereo not drawn)	inconclusive: 41.6%
CCSc1nnc(NC(=O)/C=C/c2ccco2)s1	inconclusive: 46.4%
Cc1ccc(CCNC(=O)CCS(=O)(=O)c2ccc(Br)cc2)cc1	inactive: 28.3%
O=C(Nc1ccccc1)NC1(C(=O)NCc2ccc3c(c2)OCO3)CCCCC1	inconclusive: 30.7%
COc1cccc(C(=O)NC(=S)Nc2nnn(C)n2)c1	inconclusive: 35.7%
CCOC(=O)c1c(C)oc2c1c(C=NC1CCS(=O)(=O)C1)c(O)c1ccccc12 (stereo not drawn)	inconclusive: 36%

SMILES	inhibition
C/C(=N\NC(=O)COc1ccc(C#N)cc1)c1ccccc1OC(F)F	inconclusive: 50%
COc1ccc(C(Nc2ccccn2)c2oc(CO)cc(=O)c2O)cc1 (stereo not drawn)	inactive: 20.9%
Cc1ccc(S(=O)(=O)n2cnc3cc([N+](=O)[O-])ccc32)c(C)c1	inconclusive: 36.3%
COc1cc(/C=N/N2CCN(C3c4ccccc4-c4ccccc43)CC2)cc(OC)c1O	inconclusive: 46%
Cc1cc(N2CCOCC2)ccc1/C=C1\NC(=O)N(CC(=O)Nc2ccccc2C)C1=O	inconclusive: 33.5%
CCCNC(=O)Nc1cc(S(=O)(=O)CC)ccc1O	inconclusive: 50.4%
CCc1nc(N2CCN(S(C)(=O)=O)CC2)c2c3c(sc2n1)CCCC3	inconclusive: 34.8%
CCN(CC)C(=O)COC(=O)c1cc(-c2ccco2)nc2ccccc12	inconclusive: 49.6%
O=C1CC(c2ccccc2)CC2=C1CN(C1CCCCC1)CN2 (stereo not drawn)	inconclusive: 42.8%
O=C1COc2cccnc2N1	inconclusive: 63%
O=S(=O)(N/N=C\c1ccc(-c2ccccc2Cl)o1)c1ccccc1	inconclusive: 35.3%
Cn1nc([N+](=O)[O-])nc1S(C)(=O)=O	inconclusive: 37.5%
O=C(NCc1ccccc1)C(=O)NCC1OCCCN1S(=O)(=O)c1cccs1 (stereo not drawn)	inactive: -3.27%
O=S(=O)(NC1CCCC1)c1ccccc1Cl	inconclusive: 33.3%
Cc1cccc(NC(=O)c2cccc(N3C(=O)C4C5C=CC(C6CC56)C4C3=O)c2)c1 (stereo not drawn)	inconclusive: 39.8%
CC(C)(C)N=C1NN=C(c2ccc(Cl)cc2)CS1	inconclusive: 42.1%
O=C(Oc1ccc(-c2nnco2)cc1)N1CCCCC1	inconclusive: 43.5%
CNC(=S)N1CCN(c2ccc(OC)cc2)CC1	inconclusive: 33.6%
CC1=NN(C(=O)c2csc(C)c2C)C(O)(C(F)(F)F)C1 (stereo not drawn)	inconclusive: 53.7%
CN1CCN(CC2(O)CCN(S(=O)(=O)c3ccc(Cl)cc3)CC2)CC1	inconclusive: 48%

SMILES	inhibition
CC(C)CCN1CCN(C2CCN(c3ccc4c(c3)OCO4)CC2)CC1CCO (stereo not drawn)	inconclusive: 53.8%
C=CCN(c1ccc(F)cc1)S(=O)(=O)c1cc(C(=O)OCC(=O)N(C)C2CCS(=O)(=O)C2)ccc1Cl (stereo not drawn)	inconclusive: 39.6%
COc1ccc(-n2c(SCC(=O)Nc3ccc(C(=O)O)cc3)nnc2-c2ccccc2)cc1OC	inactive: 4.7%
CCOc1ccc(N(CC(=O)Nc2ccccc2C)S(=O)(=O)c2c(C)[nH]c(=O)[nH]c2=O)cc1	inconclusive: 57.1%
O=C(NCc1ccccn1)C1CCCN(S(=O)(=O)c2ccc(Br)cc2)C1 (stereo not drawn)	inconclusive: 40.5%
CCOC(=O)c1cccc(NC(=O)c2ccc(-n3cnnn3)cc2)c1	inactive: -5.14%
CCOC(=O)NC1(NCc2ccccc2)Oc2ccccc2O1	inconclusive: 34.2%
Nc1ncnc(Oc2cccc3cccnc23)c1[N+](=O)[O-]	inconclusive: 39%
O=C1C2C3C=CC(C3)C2C(=O)N1c1ccccc1 (stereo not drawn)	inactive: 23.8%
N#Cc1c2c(c(Nc3ccc(O)cc3)n3c1nc1ccccc13)CCC2	inconclusive: 46.1%
Cc1c(C(=O)NCc2ccccc2)oc2ccc(S(=O)(=O)N3CCCC3)cc12	inconclusive: 54.6%
CC(=O)C1CCC2C3CCC4=CC(=O)CC[C@]4(C)[C@@]3(F)C(O)C[C@]12C (stereo partly drawn)	inconclusive: 59.7%
CCn1c2ccccc2c2cc(CN3CCN(S(=O)(=O)Cc4ccccc4)CC3)ccc21	inconclusive: 42.5%
Cc1cc(/C=N/O)c(C)n1-c1cccc(Cl)c1	inconclusive: 63.4%
CC(/C=N/n1c(-c2ccccc2)n[nH]c1=S)=C\c1ccco1	inactive: 29%
CC(Nc1n[nH]c(=O)[nH]c1=O)C(=O)N/N=C/c1cccs1 (stereo not drawn)	inconclusive: 50%
CCC(C)c1ccc(O)c(N)c1 (stereo not drawn)	inconclusive: 48.1%
COc1ccc(F)cc1C(=O)C1CCCN(C(=O)Cc2c(C)noc2C)C1 (stereo not drawn)	inconclusive: 62.9%

As entered above:
Value of Nc1ncnc(Oc2cccc3cccnc23)c1[N+](=O)[O-] under inhibition: inconclusive: 39%
Value of O=S(=O)(c1cccc2nsnc12)N1CCN(C/C=C\c2ccccc2)CC1 under inhibition: inconclusive: 35.7%
Value of Cc1ccc(CCNC(=O)CCS(=O)(=O)c2ccc(Br)cc2)cc1 under inhibition: inactive: 28.3%
Value of CCc1ccc(CC2S/C(=C(\C#N)C(C)=O)NC2=O)cc1 (stereo not drawn) under inhibition: inconclusive: 42.8%
